The list is a part of this screen's results and no random one: it is rich in T/C values a quarter to a half above the control, in often repeated tests (any T/C) and in doses without a T/C. Further doses and runs are listed elsewhere. T/C: endpoint of the treated group in % of that of the vehicle group. Some doses have a count of surviving animals in place of a T/C: the source holds a T/C of zero for them, seemingly a mark for toxic or unscored doses. Some survivor counts are full or nearly so, which does not show that the dose was tolerated: the source hardly ever lists a survival T/C far under the control, and the zero likely stands for such cases as well. Counts of survivors are from the toxicity check (mostly the fifth day) where no day follows; animals may have died later. Schedules are NCI's codes, taken here to give the interval after Q, in days (D) or hours (H), and the number of doses after X. Some schedules carry Z or #; the key to these is not given. Where survival is the endpoint, the PubChem record calls one and a half times the control and up active, and a quarter to a half above the control has no call in these data; cut-offs in other NCI protocols can differ.

This experiment concerns L1210 leukemia ip in BDF1 mice, survival T/C. Nature of the experiment: NCI In Vivo Anticancer Drug Screen. Data for tumor model L1210 Leukemia (intraperitoneal) in B6D2F1 (BDF1) mice. To be noted: T/C endpoint: mean survival time, higher T/C = longer survival.
The mark [1] stands for this setting: dose: 400.0 mg/kg/injection, schedule: Q01DX001 (ip), vehicle: saline.
[2] abbreviates: dose: 100.0 mg/kg/injection, schedule: Q01DX001 (ip), vehicle: saline.

As for `CC[n+]1cc(-c2ccc(NC(=O)/C=C\c3ccc(C(=O)Nc4ccc(-c5c[n+](CC)c(N)nc5N)cc4)cc3)cc2)c(N)nc1N`, the T/C by setting is: (dose: 0.53 mg/kg/injection, schedule: Q01DX009 (ip), vehicle: saline) 128 % of control; (dose: 0.8 mg/kg/injection, schedule: Q01DX009 (ip), vehicle: saline) 130 % of control; (dose: 1.2 mg/kg/injection, schedule: Q01DX009 (ip), vehicle: saline) 134 % of control; (dose: 1.8 mg/kg/injection, schedule: Q01DX009 (ip), vehicle: saline) 136 % of control; (dose: 1.8 mg/kg/injection, schedule: Q01DX015 (ip), vehicle: saline) 137 % of control; (dose: 4.1 mg/kg/injection, schedule: Q01DX015 (ip), vehicle: saline) 138 % of control. For the same molecule, the T/C (dose: 6.2 mg/kg/injection, schedule: Q01DX015 (ip), vehicle: saline) was 147 % of control; the T/C (dose: 22.0 mg/kg/injection, schedule: Q01DX015 (ip), vehicle: saline) was 138 % of control; the T/C (dose: 235.0 micrograms/kg/injection, schedule: Q01DX009 (ip), vehicle: saline) was 127 % of control; the T/C (dose: 355.0 micrograms/kg/injection, schedule: Q01DX009 (ip), vehicle: saline) was 137 % of control. In addition, the survivor count (dose: 35.0 mg/kg/injection, schedule: Q01DX015 (ip), vehicle: saline) was 6 of 6; the survivor count (dose: 65.0 mg/kg/injection, schedule: Q01DX015 (ip), vehicle: saline) is recorded as 6 of 6; the survivor count (dose: 100.0 mg/kg/injection, schedule: Q01DX015 (ip), vehicle: saline) was 5 of 6; the survivor count under setting [1] is on record as 4 of 4.
Take `C[As](C)[Se]CC1OC(O)C(O)C(O)C1O` (configuration not stated): the survivor count was 6 of 6 (dose: 100.0 mg/kg/injection, schedule: Q01DX009 (ip), vehicle: saline with Tween-80); 0 of 6 (dose: 200.0 mg/kg/injection, schedule: Q01DX009 (ip), vehicle: saline with Tween-80); 0 of 6 (dose: 400.0 mg/kg/injection, schedule: Q01DX009 (ip), vehicle: saline with Tween-80).
`CCOC(=O)c1ccc(N(CC(S)CNc2cc(C)nc(N)n2)S(=O)(=O)c2ccc(C)cc2)cc1` (configuration not stated): the survivor count (dose: 100.0 mg/kg/injection, schedule: Q01DX001 (ip), vehicle: saline with Tween-80) was 2 of 6; the survivor count under setting [2] was 4 of 6; the survivor count (dose: 200.0 mg/kg/injection, schedule: Q01DX001 (ip), vehicle: saline with Tween-80) is recorded as 1 of 6; the survivor count (dose: 400.0 mg/kg/injection, schedule: Q01DX001 (ip), vehicle: saline with Tween-80) is reported as 0 of 6.
Take `CCC(c1ccc2cc(OC)ccc2c1)C(C)(C)C(=O)F` (configuration not stated): the survivor count is 0 of 6 (dose: 100.0 mg/kg/injection, schedule: Q01DX009 (ip), vehicle: saline); 2 of 4 (dose: 200.0 mg/kg/injection, schedule: Q01DX001 (ip), vehicle: steroid suspending solution); 0 of 6 (dose: 200.0 mg/kg/injection, schedule: Q04DX003 (ip), vehicle: acetone); 1 of 4 (dose: 400.0 mg/kg/injection, schedule: Q01DX001 (ip), vehicle: steroid suspending solution); 0 of 6 (dose: 400.0 mg/kg/injection, schedule: Q04DX003 (ip), vehicle: acetone).
Turning to `CCCCCCOC(=O)C(N)Cc1ccc(OC)c(N(CCCl)CCCl)c1` (configuration not stated), the survivor count reads like this: (dose: 25.0 mg/kg/injection, schedule: Q01DX001 (ip), vehicle: saline) 6 of 6; (dose: 30.0 mg/kg/injection, schedule: Q01DX001 (ip), vehicle: saline) 1 of 6; (dose: 50.0 mg/kg/injection, schedule: Q01DX001 (ip), vehicle: saline) 0 of 6; (dose: 60.0 mg/kg/injection, schedule: Q01DX001 (ip), vehicle: saline) 0 of 6; (dose: 75.0 mg/kg/injection, schedule: Q01DX001 (sc), vehicle: carboxymethylcellulose (CMC)) 2 of 6; under setting [2], 0 of 6. Further, the survivor count runs as follows: (dose: 150.0 mg/kg/injection, schedule: Q01DX001 (sc), vehicle: carboxymethylcellulose (CMC)) 0 of 6; (dose: 200.0 mg/kg/injection, schedule: Q01DX001 (ip), vehicle: saline) 0 of 6; (dose: 300.0 mg/kg/injection, schedule: Q01DX001 (sc), vehicle: carboxymethylcellulose (CMC)) 0 of 6; under setting [1], 0 of 6.
In the case of `COc1ccc(C(CC(=O)c2ccccc2)Sc2ccccc2N)cc1OC` (configuration not stated), the survivor count (dose: 400.0 mg/kg/injection, schedule: Q01DX005 (ip), vehicle: Klucel (hydroxypropylcellulose) (HPC)) is 1 of 3.
Take `CN(C)c1ccc2[nH]c(=O)c3ccccc3c2c1`: the survivor count reads like this: (dose: 150.0 mg/kg/injection, schedule: Q01DX001 (ip), vehicle: carboxymethylcellulose (CMC)) 3 of 6; (dose: 300.0 mg/kg/injection, schedule: Q01DX001 (ip), vehicle: carboxymethylcellulose (CMC)) 0 of 6.
Consider `O=c1cc(Nc2ccc(Cl)cc2)[nH]c(=O)[nH]1`, for which the survivor count (dose: 200.0 mg/kg/injection, schedule: Q01DX001 (ip), vehicle: gum acacia) is listed as 3 of 6.
Consider `CCC[CH2][Sn]([Cl])([CH2]CCC)[CH2]CCC`, for which the survivor count (dose: 8.0 mg/kg/injection, schedule: Q04DX003 (ip), vehicle: saline) is 2 of 6; the survivor count (dose: 16.0 mg/kg/injection, schedule: Q04DX003 (ip), vehicle: saline) was 2 of 6; the survivor count (dose: 32.0 mg/kg/injection, schedule: Q04DX003 (ip), vehicle: saline) was 1 of 6.
`O=C=NCCCl`: the survivor count is 2 of 6 (dose: 50.0 mg/kg/injection, schedule: Q01DX001 (ip), vehicle: propolene glycol); 0 of 6 (dose: 75.0 mg/kg/injection, schedule: Q01DX001 (ip), vehicle: propolene glycol); 0 of 6 (dose: 100.0 mg/kg/injection, schedule: Q01DX001 (ip), vehicle: propolene glycol); 0 of 6 (dose: 150.0 mg/kg/injection, schedule: Q01DX001 (ip), vehicle: propolene glycol); 0 of 6 (dose: 200.0 mg/kg/injection, schedule: Q01DX001 (ip), vehicle: propolene glycol); 2 of 6 (dose: 200.0 mg/kg/injection, schedule: Q04DX003 (sc), vehicle: olive oil, sesame oil, peanut oil). Further, the survivor count runs as follows: (dose: 400.0 mg/kg/injection, schedule: Q04DX003 (sc), vehicle: olive oil, sesame oil, peanut oil) 0 of 6; (dose: 500.0 mg/kg/injection, schedule: Q01DX001 (ip), vehicle: propolene glycol) 0 of 6; (dose: 1000.0 mg/kg/injection, schedule: Q01DX001 (ip), vehicle: propolene glycol) 0 of 6; (dose: 1500.0 mg/kg/injection, schedule: Q01DX001 (ip), vehicle: propolene glycol) 0 of 6.
As for `CC(C)CNS(=O)(=O)c1ncnc2nc[nH]c12`, the survivor count (dose: 100.0 mg/kg/injection, schedule: Q01DX Z (ip), vehicle: carboxymethylcellulose (CMC)) was 2 of 6.
Turning to `C1CN1P1(N2CC2)=NP(N2CC2)(N2CC2)=NP(N2CC2)(N2CC2)=N1`, the T/C (dose: 2.5 mg/kg/injection, schedule: Q01DX009 (ip), vehicle: saline) is 129 % of control; the T/C (dose: 5.0 mg/kg/injection, schedule: Q01DX009 (ip), vehicle: saline) was 128 % of control; the T/C (dose: 35.0 mg/kg/injection, schedule: Q01DX009 (ip), vehicle: saline) is 141 % of control. The survivor count by setting is: (dose: 50.0 mg/kg/injection, schedule: Q01DX009 (ip), vehicle: saline) 3 of 6; (dose: 75.0 mg/kg/injection, schedule: Q01DX009 (ip), vehicle: saline) 2 of 6; (dose: 115.0 mg/kg/injection, schedule: Q01DX009 (ip), vehicle: saline) 1 of 6; (dose: 150.0 mg/kg/injection, schedule: Q01DX001 (ip), vehicle: saline) 6 of 6; (dose: 300.0 mg/kg/injection, schedule: Q01DX001 (ip), vehicle: saline) 5 of 6.
